The results in this text go back to the supplement of paper PMC6411743.

Sequences of proteins named here, by UniProt entry; tags and fusion partners are left off. A change or cut given only in a name is not applied to a line headed by its entry.
UniProt Q9NQW6: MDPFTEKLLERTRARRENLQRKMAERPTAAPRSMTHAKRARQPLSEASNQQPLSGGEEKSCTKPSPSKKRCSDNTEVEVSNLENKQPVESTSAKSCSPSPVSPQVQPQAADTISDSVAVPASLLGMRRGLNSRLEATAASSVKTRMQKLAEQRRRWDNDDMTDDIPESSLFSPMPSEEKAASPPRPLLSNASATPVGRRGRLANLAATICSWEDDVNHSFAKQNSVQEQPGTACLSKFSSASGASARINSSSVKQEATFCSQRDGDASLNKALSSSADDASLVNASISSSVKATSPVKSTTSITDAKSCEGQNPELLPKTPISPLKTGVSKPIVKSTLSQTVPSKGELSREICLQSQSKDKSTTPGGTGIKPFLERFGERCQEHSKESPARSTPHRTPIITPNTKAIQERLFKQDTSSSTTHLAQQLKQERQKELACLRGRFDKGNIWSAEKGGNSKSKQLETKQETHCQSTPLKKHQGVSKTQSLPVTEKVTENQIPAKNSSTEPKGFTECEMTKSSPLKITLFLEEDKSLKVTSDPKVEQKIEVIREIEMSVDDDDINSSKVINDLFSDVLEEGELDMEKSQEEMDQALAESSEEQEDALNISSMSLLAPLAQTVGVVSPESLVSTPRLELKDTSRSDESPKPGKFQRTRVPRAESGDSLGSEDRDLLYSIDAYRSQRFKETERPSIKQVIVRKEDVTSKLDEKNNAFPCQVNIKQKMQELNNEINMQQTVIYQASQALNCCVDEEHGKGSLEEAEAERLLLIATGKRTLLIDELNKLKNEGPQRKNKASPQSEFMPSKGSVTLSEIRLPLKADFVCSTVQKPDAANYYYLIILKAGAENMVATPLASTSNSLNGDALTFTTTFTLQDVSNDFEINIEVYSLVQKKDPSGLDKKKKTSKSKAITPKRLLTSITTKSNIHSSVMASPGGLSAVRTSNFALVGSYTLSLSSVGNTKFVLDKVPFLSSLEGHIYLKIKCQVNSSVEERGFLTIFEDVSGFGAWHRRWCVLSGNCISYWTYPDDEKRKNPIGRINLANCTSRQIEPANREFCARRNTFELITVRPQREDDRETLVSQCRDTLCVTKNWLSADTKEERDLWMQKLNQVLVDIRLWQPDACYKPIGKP
UniProt Q9H0J9: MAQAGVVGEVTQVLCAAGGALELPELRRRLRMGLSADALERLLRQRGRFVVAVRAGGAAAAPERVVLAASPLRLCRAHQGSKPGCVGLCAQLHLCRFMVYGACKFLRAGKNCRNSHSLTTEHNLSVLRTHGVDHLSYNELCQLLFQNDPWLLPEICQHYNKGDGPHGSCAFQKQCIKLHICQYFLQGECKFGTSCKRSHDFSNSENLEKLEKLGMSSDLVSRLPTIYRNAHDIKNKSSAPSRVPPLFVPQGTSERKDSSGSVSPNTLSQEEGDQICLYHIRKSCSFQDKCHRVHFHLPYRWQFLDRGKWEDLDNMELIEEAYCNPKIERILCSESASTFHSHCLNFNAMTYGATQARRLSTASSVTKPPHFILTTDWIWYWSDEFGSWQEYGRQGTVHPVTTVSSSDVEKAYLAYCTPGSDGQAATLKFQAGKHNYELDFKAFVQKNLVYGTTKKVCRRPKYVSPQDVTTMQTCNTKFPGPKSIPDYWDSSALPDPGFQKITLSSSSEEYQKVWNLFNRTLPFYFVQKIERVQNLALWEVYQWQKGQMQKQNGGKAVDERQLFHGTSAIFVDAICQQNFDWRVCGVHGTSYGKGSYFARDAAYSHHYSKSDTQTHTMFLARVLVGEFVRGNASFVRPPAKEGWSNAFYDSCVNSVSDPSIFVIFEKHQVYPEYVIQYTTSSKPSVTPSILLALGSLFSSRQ
UniProt Q9NP87, whole entry: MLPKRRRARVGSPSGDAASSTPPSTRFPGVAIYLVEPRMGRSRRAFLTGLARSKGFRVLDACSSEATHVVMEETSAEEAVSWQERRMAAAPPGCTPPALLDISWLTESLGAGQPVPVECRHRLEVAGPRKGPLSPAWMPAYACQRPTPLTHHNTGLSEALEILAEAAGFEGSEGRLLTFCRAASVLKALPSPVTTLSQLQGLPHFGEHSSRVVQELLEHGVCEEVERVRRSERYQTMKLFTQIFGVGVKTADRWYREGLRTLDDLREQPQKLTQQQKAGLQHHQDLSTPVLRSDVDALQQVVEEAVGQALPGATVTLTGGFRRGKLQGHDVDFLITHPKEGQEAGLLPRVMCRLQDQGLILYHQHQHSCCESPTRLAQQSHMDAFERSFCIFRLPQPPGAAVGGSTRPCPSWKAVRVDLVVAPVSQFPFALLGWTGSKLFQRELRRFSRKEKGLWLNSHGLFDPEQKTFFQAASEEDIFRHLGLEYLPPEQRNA
UniProt Q9H1E5: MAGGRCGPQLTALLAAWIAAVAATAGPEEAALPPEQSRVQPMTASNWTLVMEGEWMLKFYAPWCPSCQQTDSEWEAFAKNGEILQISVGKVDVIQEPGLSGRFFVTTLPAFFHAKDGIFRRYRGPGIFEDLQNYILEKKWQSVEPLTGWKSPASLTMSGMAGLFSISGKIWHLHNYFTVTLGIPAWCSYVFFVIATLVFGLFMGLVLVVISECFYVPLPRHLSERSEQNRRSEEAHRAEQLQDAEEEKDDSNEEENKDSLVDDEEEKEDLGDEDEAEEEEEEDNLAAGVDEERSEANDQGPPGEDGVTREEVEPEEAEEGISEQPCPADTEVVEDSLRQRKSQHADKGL
UniProt Q9H0S4: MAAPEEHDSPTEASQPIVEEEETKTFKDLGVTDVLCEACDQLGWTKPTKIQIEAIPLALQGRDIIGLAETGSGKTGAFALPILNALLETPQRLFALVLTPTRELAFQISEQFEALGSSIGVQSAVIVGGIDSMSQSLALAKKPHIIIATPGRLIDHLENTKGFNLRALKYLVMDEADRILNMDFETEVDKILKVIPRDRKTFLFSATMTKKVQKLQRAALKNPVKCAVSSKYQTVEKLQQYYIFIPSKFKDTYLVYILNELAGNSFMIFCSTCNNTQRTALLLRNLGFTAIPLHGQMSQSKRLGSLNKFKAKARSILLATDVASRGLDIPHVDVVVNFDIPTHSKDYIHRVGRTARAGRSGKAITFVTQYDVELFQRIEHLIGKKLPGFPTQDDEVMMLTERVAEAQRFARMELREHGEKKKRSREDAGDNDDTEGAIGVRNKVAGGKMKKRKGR
UniProt Q9C0F1: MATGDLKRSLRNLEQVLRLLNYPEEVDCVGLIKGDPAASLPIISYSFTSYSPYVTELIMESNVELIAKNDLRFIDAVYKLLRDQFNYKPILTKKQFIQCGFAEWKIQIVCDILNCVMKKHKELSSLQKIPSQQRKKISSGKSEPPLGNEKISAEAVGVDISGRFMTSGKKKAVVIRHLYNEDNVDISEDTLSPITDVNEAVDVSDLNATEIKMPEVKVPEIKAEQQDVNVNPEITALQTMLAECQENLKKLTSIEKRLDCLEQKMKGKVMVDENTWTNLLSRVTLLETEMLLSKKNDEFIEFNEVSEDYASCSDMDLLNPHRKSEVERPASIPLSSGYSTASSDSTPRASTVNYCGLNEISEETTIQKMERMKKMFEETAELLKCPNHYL
UniProt Q9NRK6: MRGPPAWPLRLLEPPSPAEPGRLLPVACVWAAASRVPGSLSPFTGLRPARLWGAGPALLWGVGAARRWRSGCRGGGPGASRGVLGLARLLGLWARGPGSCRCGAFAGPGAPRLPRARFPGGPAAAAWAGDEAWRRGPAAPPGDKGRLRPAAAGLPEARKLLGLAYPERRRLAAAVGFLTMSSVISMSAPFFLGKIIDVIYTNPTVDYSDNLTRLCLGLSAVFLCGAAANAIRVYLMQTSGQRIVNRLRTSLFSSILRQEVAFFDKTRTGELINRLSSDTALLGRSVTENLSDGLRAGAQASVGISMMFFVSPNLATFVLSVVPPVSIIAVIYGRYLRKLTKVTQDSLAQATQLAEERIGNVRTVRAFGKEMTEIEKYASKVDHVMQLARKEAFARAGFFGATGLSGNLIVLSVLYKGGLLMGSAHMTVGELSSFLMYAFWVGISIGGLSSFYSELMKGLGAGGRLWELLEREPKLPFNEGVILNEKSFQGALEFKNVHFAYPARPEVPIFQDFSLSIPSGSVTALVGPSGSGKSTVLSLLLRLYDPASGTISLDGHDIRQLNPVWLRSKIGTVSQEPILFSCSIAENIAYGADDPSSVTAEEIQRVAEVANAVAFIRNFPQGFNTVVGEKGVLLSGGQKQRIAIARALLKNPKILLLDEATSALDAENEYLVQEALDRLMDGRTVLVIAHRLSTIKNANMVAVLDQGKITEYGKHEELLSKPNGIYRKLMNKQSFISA
UniProt Q9HCN8: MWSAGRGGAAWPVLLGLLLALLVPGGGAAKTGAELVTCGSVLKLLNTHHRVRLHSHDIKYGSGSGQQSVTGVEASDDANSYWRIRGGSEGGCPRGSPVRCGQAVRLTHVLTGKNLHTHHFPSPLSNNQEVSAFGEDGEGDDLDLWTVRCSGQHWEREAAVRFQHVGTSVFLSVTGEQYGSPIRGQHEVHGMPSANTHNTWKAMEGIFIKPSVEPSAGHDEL
UniProt Q9HCD5: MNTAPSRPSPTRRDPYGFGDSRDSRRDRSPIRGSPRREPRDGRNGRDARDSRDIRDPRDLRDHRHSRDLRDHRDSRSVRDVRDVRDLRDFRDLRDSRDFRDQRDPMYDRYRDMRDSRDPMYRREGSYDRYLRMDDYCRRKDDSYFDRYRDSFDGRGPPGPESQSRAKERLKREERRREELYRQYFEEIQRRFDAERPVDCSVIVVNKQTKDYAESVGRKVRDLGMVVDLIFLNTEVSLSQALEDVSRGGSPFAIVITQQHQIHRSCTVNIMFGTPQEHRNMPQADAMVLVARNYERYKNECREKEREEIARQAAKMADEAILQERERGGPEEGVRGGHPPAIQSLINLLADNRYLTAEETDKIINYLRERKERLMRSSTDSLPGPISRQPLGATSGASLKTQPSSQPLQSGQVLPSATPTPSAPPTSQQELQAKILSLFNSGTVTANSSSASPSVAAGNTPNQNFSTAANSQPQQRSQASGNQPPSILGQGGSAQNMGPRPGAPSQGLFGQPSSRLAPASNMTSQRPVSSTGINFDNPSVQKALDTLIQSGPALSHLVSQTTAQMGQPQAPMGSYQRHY
UniProt Q9H6W3: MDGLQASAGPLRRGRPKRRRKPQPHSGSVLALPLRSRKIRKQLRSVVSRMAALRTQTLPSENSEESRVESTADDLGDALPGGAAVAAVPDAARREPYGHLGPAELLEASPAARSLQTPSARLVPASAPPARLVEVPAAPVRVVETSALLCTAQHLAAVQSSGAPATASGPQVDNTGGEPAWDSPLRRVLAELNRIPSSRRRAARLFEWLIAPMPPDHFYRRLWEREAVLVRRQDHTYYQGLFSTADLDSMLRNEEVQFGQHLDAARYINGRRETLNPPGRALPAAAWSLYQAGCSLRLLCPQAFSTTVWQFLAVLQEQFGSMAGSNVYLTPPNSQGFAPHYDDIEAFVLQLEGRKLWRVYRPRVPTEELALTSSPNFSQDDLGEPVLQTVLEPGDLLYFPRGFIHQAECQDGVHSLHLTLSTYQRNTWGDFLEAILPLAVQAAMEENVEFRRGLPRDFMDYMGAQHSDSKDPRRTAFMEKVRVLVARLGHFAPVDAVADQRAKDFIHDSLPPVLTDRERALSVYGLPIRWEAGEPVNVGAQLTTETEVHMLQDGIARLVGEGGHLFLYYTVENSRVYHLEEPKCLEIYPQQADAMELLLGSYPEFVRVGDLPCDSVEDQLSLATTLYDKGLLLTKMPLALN
UniProt Q9H6Z4: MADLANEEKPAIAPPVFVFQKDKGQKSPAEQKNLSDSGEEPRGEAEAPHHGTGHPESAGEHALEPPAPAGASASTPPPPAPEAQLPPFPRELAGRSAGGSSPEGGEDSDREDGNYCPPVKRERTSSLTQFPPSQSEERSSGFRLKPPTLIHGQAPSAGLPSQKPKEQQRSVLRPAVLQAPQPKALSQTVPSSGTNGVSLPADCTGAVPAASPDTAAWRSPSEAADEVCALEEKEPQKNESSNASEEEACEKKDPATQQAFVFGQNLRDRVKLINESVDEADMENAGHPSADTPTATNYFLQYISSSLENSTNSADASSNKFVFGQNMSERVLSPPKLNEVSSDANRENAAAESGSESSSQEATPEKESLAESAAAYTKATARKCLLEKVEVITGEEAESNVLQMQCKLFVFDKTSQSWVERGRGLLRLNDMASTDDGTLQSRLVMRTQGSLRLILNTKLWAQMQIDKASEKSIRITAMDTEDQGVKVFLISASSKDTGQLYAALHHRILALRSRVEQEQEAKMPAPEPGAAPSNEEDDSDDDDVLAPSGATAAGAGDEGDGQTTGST

Compound in the assay: Nc1nc2c(ncn2[C@@H]2O[C@H](COP(=O)(O)OP(=O)(O)OP(=O)(O)O)[C@@H](O)[C@H]2O)c(=O)[nH]1 [guanosine triphosphate]
The experiment in a line: NP40-soluble protein abundance relative to vehicle (solubility fold change) (ratio); higher = more soluble protein in presence of GTP. The method, boiled down: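 Across three independent experiments, values are fold changes against the detergent-processed vehicle for each replicate, based on vsn-normalised intensities. The samples were Jurkat crude lysate treated with eight concentrations (0.1 to 10 mM) for 10 min at room temperature and then 3 min at 37 °C. Lysate was solubilised with 0.8% NP40 and benzonase, ultracentrifuged, and the supernatant analysed by TMT-labelled LC-MS/MS.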

± gives the standard deviation of the averaged measurements. This is one part of the list.

With ANLN (UniProt Q9NQW6), the NP40-soluble protein abundance is, setting by setting: (concentration: 0.1mM) 0.943 ± 0.04; (concentration: 0.5mM) 0.967 ± 0.044; (concentration: 1mM) 0.949 ± 0.072; (concentration: 2mM) 0.93 ± 0.084; (concentration: 4mM) 0.925 ± 0.061; (concentration: 6mM) 0.957 ± 0.076. In addition, the NP40-soluble protein abundance (concentration: 8mM) was found to be 0.971 ± 0.033 and the NP40-soluble protein abundance (concentration: 10mM) worked out at 0.993 ± 0.053.
For PARP12 (UniProt Q9H0J9), the NP40-soluble protein abundance by setting is: (concentration: 0.1mM) 1.05 ± 0.085; (concentration: 0.5mM) 1.11 ± 0.1; (concentration: 1mM) 0.947 ± 0.038; (concentration: 2mM) 1.02 ± 0.067; (concentration: 4mM) 0.97 ± 0.045; (concentration: 6mM) 0.934 ± 0.036. For the same target, the NP40-soluble protein abundance is, setting by setting: (concentration: 8mM) 0.928 ± 0.027; (concentration: 10mM) 0.881 ± 0.055.
Consider UniProt Q9NP87, for which the NP40-soluble protein abundance runs as follows: (concentration: 0.1mM) 1.26 ± 0.16; (concentration: 0.5mM) 1.18 ± 0.17; (concentration: 1mM) 1.1 ± 0.026; (concentration: 2mM) 1.12 ± 0.075; (concentration: 4mM) 1.18 ± 0.074; (concentration: 6mM) 1.04 ± 0.051. The NP40-soluble protein abundance runs as follows: (concentration: 8mM) 1.16 ± 0.031; (concentration: 10mM) 1.02 ± 0.046.
In the case of UniProt Q9H1E5, the NP40-soluble protein abundance reads like this: (concentration: 0.1mM) 0.993 ± 0.1; (concentration: 0.5mM) 0.912 ± 0.052; (concentration: 1mM) 0.896 ± 0.053; (concentration: 2mM) 0.866 ± 0.062; (concentration: 4mM) 0.971 ± 0.06; (concentration: 6mM) 0.873 ± 0.061. Besides, the NP40-soluble protein abundance by setting is: (concentration: 8mM) 0.872 ± 0.11; (concentration: 10mM) 0.88 ± 0.096.
Regarding DDX47 (UniProt Q9H0S4), the NP40-soluble protein abundance is, setting by setting: (concentration: 0.1mM) 1.1 ± 0.045; (concentration: 0.5mM) 1.08 ± 0.057; (concentration: 1mM) 1.02 ± 0.068; (concentration: 2mM) 1.12 ± 0.1; (concentration: 4mM) 1.34 ± 0.1; (concentration: 6mM) 1.39 ± 0.066. Further, the NP40-soluble protein abundance by setting is: (concentration: 8mM) 1.5 ± 0.057; (concentration: 10mM) 1.7 ± 0.12.
Regarding GHITM (UniProt Q9H3K2), the NP40-soluble protein abundance runs as follows: (concentration: 0.1mM) 1.03 ± 0.047; (concentration: 0.5mM) 0.96 ± 0.057; (concentration: 1mM) 0.915 ± 0.075; (concentration: 2mM) 0.914 ± 0.084; (concentration: 4mM) 0.929 ± 0.06; (concentration: 6mM) 0.909 ± 0.033. In addition, the NP40-soluble protein abundance by setting is: (concentration: 8mM) 0.876 ± 0.071; (concentration: 10mM) 0.865 ± 0.093.
UniProt Q9C0F1: the NP40-soluble protein abundance was 0.971 ± 0.068 (concentration: 0.1mM); 1.03 ± 0.071 (concentration: 0.5mM); 1.06 ± 0.021 (concentration: 1mM); 0.9986 ± 0.0032 (concentration: 2mM); 1.01 ± 0.04 (concentration: 4mM); 0.991 ± 0.091 (concentration: 6mM). The NP40-soluble protein abundance stood at 1.05 ± 0.043 (concentration: 8mM) and 1.02 ± 0.033 (concentration: 10mM).
As for ABCB10 (UniProt Q9NRK6), the NP40-soluble protein abundance reads like this: (concentration: 0.1mM) 1.06 ± 0.039; (concentration: 0.5mM) 1.01 ± 0.054; (concentration: 1mM) 0.983 ± 0.027; (concentration: 2mM) 0.991 ± 0.033; (concentration: 4mM) 0.998 ± 0.046; (concentration: 6mM) 0.945 ± 0.053. Besides, the NP40-soluble protein abundance is, setting by setting: (concentration: 8mM) 0.934 ± 0.024; (concentration: 10mM) 0.91 ± 0.041.
On to UniProt Q9GZN8 and related entries, for which the NP40-soluble protein abundance runs as follows: (concentration: 0.1mM) 1.09 ± 0.02; (concentration: 0.5mM) 0.998 ± 0.021; (concentration: 1mM) 1.064 ± 0.01; (concentration: 2mM) 0.9909 ± 0.0088; (concentration: 4mM) 1.09 ± 0.044; (concentration: 6mM) 0.9681 ± 0.0027. Also, the NP40-soluble protein abundance was 1 ± 0.077 (concentration: 8mM) and 0.936 ± 0.072 (concentration: 10mM).
Regarding SDF2L1 (UniProt Q9HCN8), the NP40-soluble protein abundance by setting is: (concentration: 0.1mM) 0.97 ± 0.078; (concentration: 0.5mM) 0.987 ± 0.081; (concentration: 1mM) 0.973 ± 0.052; (concentration: 2mM) 0.966 ± 0.084; (concentration: 4mM) 0.986 ± 0.091; (concentration: 6mM) 0.98 ± 0.096. The NP40-soluble protein abundance runs as follows: (concentration: 8mM) 0.98 ± 0.12; (concentration: 10mM) 0.956 ± 0.094.
Take NCOA5 (UniProt Q9HCD5): the NP40-soluble protein abundance was 1.03 ± 0.053 (concentration: 0.1mM); 1 ± 0.028 (concentration: 0.5mM); 1.084 ± 0.0085 (concentration: 1mM); 1.22 ± 0.043 (concentration: 2mM); 1.58 ± 0.053 (concentration: 4mM); 1.81 ± 0.059 (concentration: 6mM). The NP40-soluble protein abundance is, setting by setting: (concentration: 8mM) 2.15 ± 0.18; (concentration: 10mM) 2.4 ± 0.19.
Take DHX33 (UniProt Q9H6R0): the NP40-soluble protein abundance worked out at 1.01 ± 0.19 (concentration: 0.1mM); 1.02 ± 0.15 (concentration: 0.5mM); 1.13 ± 0.14 (concentration: 1mM); 1.25 ± 0.16 (concentration: 2mM); 1.29 ± 0.13 (concentration: 4mM); 1.43 ± 0.18 (concentration: 6mM). For the same target, the NP40-soluble protein abundance came out at 1.51 ± 0.14 (concentration: 8mM) and 1.48 ± 0.087 (concentration: 10mM).
On to UniProt Q9H6W3, for which the NP40-soluble protein abundance (concentration: 0.1mM) came to 1.01 ± 0.095; the NP40-soluble protein abundance (concentration: 0.5mM) worked out at 1.06 ± 0.097; the NP40-soluble protein abundance (concentration: 1mM) amounted to 1.08 ± 0.059; the NP40-soluble protein abundance (concentration: 2mM) was determined as 1.13 ± 0.041; the NP40-soluble protein abundance (concentration: 4mM) is 1.2 ± 0.026; the NP40-soluble protein abundance (concentration: 6mM) was found to be 1.22 ± 0.057. Besides, the NP40-soluble protein abundance (concentration: 8mM) is 1.27 ± 0.079 and the NP40-soluble protein abundance (concentration: 10mM) is 1.36 ± 0.082.
As to UniProt Q9H6Z4 and related entries, the NP40-soluble protein abundance runs as follows: (concentration: 0.1mM) 0.956 ± 0.081; (concentration: 0.5mM) 0.905 ± 0.058; (concentration: 1mM) 0.904 ± 0.052; (concentration: 2mM) 0.877 ± 0.071; (concentration: 4mM) 0.894 ± 0.11; (concentration: 6mM) 0.844 ± 0.039. Besides, the NP40-soluble protein abundance by setting is: (concentration: 8mM) 0.901 ± 0.12; (concentration: 10mM) 0.889 ± 0.12.
Turning to UniProt Q9HD33 and related entries, the NP40-soluble protein abundance came to 1.01 ± 0.017 (concentration: 0.1mM); 1.16 ± 0.087 (concentration: 0.5mM); 1.34 ± 0.23 (concentration: 1mM); 1.55 ± 0.39 (concentration: 2mM); 1.7 ± 0.52 (concentration: 4mM); 1.86 ± 0.49 (concentration: 6mM). Besides, the NP40-soluble protein abundance by setting is: (concentration: 8mM) 2.03 ± 0.59; (concentration: 10mM) 2.05 ± 0.64.
